Some of the results follow. Residues, ends and D or L forms follow the SMILES beside them. *: point of attachment. Cbz = O=C(OCc1ccccc1)*
Legend:
Test in all cases: log2 fold change, soluble protein after heating vs DMSO (PISA); higher = thermal stabilisation; K562 cells, 10 uM, 30 min; active = over 0.2 and 3.5 SD of the protein, either way, in both replicates (recomputed)
[1] = compound: C#Cc1cccc(Nc2ncnc3cc(OCCOC)c(OCCOC)cc23)c1 [erlotinib]
In short: (§1)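 K562 cells at 2×10^6 cells/mL were exposed to 10 μM compound for 30 min, then aliquots were heated for 3 min across 48°C-58°C, pooled, and extracted in PBS containing 0.5% NP-40 at 4°C. The supernatant after 21,000xg for 90 min was taken as soluble protein and measured by TMTpro 16plex LC-MS/MS with channel sums equalised. Thermal stability is reported relative to control samples, with values from duplicates. Fold changes are given on a log2 scale.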

By UniProt entry, the sequences of proteins in these tests, tags left out. Where a name states a change or a piece, a line headed by the entry shows the natural chain unless it says otherwise.
UniProt P37802: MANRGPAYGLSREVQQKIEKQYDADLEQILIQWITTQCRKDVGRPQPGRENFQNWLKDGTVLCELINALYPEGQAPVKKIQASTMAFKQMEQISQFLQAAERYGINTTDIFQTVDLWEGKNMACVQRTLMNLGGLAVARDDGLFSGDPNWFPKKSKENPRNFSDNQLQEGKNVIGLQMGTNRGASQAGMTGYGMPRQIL
UniProt P46977: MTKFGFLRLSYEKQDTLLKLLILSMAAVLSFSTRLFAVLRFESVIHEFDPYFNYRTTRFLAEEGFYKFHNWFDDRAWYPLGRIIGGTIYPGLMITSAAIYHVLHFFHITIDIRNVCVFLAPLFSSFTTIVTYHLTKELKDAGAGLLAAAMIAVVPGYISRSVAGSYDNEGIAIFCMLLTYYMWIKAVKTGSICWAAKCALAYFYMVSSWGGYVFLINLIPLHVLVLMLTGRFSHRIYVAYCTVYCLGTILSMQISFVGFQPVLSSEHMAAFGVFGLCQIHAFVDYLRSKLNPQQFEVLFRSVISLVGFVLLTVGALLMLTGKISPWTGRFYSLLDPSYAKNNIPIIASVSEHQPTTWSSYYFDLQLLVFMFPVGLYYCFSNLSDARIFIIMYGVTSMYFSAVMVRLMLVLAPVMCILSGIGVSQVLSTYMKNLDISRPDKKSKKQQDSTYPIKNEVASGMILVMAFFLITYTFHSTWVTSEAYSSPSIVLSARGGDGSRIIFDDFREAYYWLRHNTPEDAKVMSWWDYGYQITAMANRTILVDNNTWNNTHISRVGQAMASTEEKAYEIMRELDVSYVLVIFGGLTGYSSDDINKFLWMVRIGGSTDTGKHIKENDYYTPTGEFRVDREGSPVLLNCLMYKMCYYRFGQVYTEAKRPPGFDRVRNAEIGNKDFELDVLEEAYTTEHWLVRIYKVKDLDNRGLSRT
UniProt Q12846: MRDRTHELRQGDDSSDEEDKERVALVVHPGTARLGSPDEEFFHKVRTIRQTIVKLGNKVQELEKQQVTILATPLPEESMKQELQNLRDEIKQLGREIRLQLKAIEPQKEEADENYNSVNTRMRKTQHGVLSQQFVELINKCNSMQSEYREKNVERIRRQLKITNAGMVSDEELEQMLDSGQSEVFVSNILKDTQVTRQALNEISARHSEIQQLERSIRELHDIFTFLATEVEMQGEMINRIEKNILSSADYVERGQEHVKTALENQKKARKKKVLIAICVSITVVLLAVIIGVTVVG
UniProt P37837: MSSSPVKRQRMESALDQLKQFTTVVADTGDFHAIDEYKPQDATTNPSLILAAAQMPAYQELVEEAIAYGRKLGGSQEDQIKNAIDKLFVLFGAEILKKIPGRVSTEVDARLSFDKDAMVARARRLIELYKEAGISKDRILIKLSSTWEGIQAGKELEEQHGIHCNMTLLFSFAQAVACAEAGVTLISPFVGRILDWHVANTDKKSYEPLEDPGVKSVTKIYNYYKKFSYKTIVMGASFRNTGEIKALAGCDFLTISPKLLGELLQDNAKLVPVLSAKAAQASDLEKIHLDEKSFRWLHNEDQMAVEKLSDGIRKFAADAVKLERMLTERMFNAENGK
UniProt P27105: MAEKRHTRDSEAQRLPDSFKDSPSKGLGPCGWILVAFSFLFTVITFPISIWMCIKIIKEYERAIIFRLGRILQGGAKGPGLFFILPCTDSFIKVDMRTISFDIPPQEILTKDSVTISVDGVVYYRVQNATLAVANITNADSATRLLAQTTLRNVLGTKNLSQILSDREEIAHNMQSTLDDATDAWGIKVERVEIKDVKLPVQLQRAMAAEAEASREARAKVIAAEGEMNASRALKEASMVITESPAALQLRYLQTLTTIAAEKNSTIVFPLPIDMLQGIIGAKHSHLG
UniProt P17542, whole entry, looked up: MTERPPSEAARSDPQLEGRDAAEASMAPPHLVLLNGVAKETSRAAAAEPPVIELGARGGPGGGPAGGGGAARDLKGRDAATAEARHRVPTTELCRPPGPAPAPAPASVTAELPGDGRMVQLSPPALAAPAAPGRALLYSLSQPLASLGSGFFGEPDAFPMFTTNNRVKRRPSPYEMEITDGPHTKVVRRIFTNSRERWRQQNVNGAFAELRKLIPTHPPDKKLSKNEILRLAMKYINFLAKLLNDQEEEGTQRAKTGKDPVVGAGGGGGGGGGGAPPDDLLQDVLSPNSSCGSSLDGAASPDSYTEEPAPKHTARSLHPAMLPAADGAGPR
UniProt Q86Y82: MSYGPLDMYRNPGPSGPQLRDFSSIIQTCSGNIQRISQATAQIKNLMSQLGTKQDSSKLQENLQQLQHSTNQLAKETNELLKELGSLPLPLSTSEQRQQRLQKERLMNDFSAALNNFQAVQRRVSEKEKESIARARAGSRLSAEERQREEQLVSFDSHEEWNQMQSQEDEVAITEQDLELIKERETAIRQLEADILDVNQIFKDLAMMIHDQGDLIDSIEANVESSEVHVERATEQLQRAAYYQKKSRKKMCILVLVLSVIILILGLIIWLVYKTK
UniProt P0DMM9: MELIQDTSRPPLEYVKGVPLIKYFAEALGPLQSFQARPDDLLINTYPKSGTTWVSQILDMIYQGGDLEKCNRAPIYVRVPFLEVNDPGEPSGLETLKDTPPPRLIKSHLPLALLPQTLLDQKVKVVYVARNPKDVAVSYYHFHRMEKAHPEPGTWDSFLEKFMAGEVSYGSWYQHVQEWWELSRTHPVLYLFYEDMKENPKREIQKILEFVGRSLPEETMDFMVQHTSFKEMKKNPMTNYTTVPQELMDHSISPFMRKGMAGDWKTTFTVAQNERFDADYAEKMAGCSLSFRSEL
UniProt Q96I99: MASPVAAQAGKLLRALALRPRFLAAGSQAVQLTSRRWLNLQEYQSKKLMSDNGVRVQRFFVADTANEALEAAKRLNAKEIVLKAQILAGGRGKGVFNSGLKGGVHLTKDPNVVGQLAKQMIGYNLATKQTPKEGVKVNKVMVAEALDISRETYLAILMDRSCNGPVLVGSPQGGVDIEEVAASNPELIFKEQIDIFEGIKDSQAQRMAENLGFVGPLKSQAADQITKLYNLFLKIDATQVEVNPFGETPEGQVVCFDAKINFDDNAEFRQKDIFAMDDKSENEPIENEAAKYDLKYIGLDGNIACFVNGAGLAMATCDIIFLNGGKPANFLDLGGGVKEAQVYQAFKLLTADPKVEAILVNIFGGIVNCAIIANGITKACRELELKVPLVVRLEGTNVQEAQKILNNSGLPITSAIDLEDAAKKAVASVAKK
UniProt Q9P2R7: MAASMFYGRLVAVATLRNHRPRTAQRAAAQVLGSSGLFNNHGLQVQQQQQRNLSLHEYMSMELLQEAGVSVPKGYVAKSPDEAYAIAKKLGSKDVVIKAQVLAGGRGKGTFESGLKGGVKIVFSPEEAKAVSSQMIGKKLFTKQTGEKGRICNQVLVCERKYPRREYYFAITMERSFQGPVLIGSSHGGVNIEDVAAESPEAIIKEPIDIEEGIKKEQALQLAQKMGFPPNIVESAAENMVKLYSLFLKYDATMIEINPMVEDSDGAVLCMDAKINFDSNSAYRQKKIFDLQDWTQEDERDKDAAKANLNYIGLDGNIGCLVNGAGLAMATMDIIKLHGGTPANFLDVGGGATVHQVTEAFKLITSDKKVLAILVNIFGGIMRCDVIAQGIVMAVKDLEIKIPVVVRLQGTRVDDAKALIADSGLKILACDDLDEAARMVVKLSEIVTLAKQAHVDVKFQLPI
UniProt Q9C0B7: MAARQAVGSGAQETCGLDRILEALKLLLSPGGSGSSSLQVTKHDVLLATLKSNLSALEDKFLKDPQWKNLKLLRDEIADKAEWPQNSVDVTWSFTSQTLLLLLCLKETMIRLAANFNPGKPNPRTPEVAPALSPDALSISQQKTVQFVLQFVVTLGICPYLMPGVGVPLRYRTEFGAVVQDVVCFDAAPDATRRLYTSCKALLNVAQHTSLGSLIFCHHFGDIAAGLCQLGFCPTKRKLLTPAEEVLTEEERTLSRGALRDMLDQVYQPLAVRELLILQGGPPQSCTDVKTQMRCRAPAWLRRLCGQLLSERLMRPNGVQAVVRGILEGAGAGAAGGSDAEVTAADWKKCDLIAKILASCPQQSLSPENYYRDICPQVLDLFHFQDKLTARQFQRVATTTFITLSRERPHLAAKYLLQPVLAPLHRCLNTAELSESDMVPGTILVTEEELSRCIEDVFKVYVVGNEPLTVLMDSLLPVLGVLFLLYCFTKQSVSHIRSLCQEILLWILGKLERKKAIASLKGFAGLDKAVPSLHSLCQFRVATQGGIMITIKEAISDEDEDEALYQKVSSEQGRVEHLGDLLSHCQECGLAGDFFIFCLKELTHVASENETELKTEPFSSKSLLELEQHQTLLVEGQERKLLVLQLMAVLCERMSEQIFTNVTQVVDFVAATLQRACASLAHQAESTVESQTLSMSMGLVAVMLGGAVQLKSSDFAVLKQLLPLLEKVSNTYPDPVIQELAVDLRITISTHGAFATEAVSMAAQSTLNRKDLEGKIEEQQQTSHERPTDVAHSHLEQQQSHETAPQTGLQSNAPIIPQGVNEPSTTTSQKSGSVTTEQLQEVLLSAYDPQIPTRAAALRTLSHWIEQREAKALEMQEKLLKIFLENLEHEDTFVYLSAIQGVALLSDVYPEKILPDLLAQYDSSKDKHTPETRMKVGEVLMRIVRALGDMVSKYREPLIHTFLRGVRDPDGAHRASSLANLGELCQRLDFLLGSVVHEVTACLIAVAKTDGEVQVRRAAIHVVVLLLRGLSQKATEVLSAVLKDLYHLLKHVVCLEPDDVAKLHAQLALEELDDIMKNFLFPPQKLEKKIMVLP
UniProt O75683: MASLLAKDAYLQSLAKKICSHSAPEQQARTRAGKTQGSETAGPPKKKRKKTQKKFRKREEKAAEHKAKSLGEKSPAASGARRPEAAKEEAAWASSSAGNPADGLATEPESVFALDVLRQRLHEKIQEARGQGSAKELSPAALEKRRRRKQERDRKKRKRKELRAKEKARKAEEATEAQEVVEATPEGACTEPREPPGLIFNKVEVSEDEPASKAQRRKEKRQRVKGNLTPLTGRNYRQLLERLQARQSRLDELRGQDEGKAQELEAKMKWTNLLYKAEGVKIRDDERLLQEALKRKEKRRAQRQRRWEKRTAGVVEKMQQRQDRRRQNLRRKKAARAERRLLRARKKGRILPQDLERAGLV
UniProt A2RTX5: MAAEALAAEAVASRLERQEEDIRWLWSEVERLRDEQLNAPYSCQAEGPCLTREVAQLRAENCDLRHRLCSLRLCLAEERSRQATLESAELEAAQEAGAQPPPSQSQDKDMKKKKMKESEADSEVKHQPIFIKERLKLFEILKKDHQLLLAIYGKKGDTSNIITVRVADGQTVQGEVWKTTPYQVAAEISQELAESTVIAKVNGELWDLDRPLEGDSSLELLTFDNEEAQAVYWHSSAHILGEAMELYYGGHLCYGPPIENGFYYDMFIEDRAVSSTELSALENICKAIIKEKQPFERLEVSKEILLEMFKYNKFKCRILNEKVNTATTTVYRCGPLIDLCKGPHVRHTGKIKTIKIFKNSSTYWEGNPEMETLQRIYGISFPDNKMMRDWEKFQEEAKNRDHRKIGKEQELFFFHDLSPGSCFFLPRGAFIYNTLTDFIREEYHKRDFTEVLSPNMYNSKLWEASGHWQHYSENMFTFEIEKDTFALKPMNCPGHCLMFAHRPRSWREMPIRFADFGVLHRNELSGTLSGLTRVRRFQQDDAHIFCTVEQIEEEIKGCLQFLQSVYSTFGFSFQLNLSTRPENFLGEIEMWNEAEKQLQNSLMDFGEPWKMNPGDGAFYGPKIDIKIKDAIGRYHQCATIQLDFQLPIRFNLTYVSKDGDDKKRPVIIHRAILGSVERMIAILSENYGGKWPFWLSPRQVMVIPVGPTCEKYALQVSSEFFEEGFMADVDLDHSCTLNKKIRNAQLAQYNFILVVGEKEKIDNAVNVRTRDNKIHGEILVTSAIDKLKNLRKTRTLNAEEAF
UniProt Q92804: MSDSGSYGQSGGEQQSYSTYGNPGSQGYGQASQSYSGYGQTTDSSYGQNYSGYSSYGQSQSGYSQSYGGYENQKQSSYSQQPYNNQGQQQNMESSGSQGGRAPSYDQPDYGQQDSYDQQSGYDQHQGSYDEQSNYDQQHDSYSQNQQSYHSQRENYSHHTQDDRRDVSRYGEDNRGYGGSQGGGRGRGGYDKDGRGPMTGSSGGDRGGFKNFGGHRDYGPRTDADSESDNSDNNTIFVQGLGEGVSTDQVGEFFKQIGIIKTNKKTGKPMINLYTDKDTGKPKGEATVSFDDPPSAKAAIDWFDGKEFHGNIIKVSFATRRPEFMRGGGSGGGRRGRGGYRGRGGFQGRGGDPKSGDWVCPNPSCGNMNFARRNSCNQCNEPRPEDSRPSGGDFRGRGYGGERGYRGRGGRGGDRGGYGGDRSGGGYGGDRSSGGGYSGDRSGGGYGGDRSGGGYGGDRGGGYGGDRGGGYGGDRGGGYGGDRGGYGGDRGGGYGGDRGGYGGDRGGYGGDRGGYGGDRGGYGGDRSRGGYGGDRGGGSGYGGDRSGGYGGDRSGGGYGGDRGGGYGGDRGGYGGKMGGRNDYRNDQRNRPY

[2] = compound: C/C(=N\NC(=O)C1=CC(=CC=C1)S(=O)(=O)N2CCOCC2)/C3=C(C=CC(=C3)Cl)O
In short: as §1

[3] = compound: C1=CC(=C(C=C1Cl)C2=NC3=NC=CN=C3C(=N2)NC4=CC=NC=C4)F
In short: as §1

[4] = compound: C1=CC(=CC=C1C2=NC3=C(N2)C=C(C=C3)C(=O)N)OC4=CC=C(C=C4)Cl
In short: as §1

[5] = compound: C1=CC2=C(C=CC(=C2)/C=C\3/C(=O)NC(=NCC4=CC=CS4)S3)N=C1
In short: as §1

[6] = compound: C1=CC2=NC=CN=C2C=C1/C=C/3\C(=O)NC(=O)S3
In short: as §1

[7] = compound: C1=CC=C(C=C1)C2=NC(=C(N2)C3=CC=NC=C3)C4=CC(=C(C=C4)Cl)O
In short: as §1

[8] = compound: C1=CC=C2C(=C1)C3=NNC4=CC=CC(=C43)C2=O
In short: as §1

[9] = compound: C1CCN(C1)C(=O)NC2=CC=CC(=C2)NC3=NC=C(C(=N3)NCCC4=CN=CN4)Br
In short: as §1

[10] = compound: C1CN(CCC1(CC2=CC=C(C=C2)Cl)N)C3=NC=NC4=C3C=CN4
In short: as §1

[11] = compound: C1COCCN1CCN2C3=CC=CC=C3N=C2NC(=O)C4=CC(=CC=C4)[N+](=O)[O-] [IRAK-1-4 Inhibitor I]
In short: as §1

[12] = compound: C=CC(=O)N1CCC[C@@H](n2nc(-c3ccc(Oc4ccccc4)cc3)c3c(N)ncnc32)C1 [ibrutinib]
In short: as §1

[13] = compound: CC(=O)c1cnc2ccc(-c3cc(Cl)c(O)c(Cl)c3)nc2c1N[C@H]1CC[C@H](CN(C)C)CC1
In short: as §1

[14] = compound: CC(C)(C)Cn1c(N)nc2ccc(-c3[nH]c(C(C)(C)C)nc3-c3ccc(F)cc3)nc21 [ralimetinib]
In short: as §1

[15] = compound: CC(C)(O)CC(=O)NCCn1ccc2ncnc(Nc3ccc(Oc4cccc(C(F)(F)F)c4)c(Cl)c3)c21
In short: as §1

[16] = compound: CC(C)C1=C2N=C(C=C(N2N=C1)NCC3=CC=CC=C3)NCCCCCCN
In short: as §1

[17] = compound: CC(C)C[C@@H](C=O)NC(=O)[C@H](CC(C)C)NC(=O)[C@H](CC(C)C)NC(=O)OCc1ccccc1
In short: as §1

[18] = compound: CC(C)N(C[C@H]1O[C@@H](n2cnc3c(N)ncnc32)[C@H](O)[C@@H]1O)[C@H]1C[C@@H](CCc2nc3cc(C(C)(C)C)ccc3[nH]2)C1 [pinometostat]
In short: as §1

[19] = compound: CC1=C(C2=C(C=C1)C(=O)C3=CC=CC=C3N2CCCN)C
In short: as §1

[20] = compound: CC1=C(C(CC(=O)N1)C2=CC=C(C=C2)C(F)(F)F)C(=O)NC3=C(C=C4C(=C3)C=NN4)F
In short: as §1

Row | Target | log2 fold change [1] | log2 fold change [2] | log2 fold change [3] | log2 fold change [4] | log2 fold change [5] | log2 fold change [6] | log2 fold change [7] | log2 fold change [8] | log2 fold change [9] | log2 fold change [10] | log2 fold change [11] | log2 fold change [12] | log2 fold change [13] | log2 fold change [14] | log2 fold change [15] | log2 fold change [16] | log2 fold change [17] | log2 fold change [18] | log2 fold change [19] | log2 fold change [20]
1 | STK39 (UniProt Q9UEW8) | inactive: 0.064 | inactive: 0.07 | inactive: 0.038 | inactive: -0.096 | inactive: 0.035 | inactive: 0.06 | inactive: 0.034 | inactive: 0.019 | inactive: 0.014 | inactive: -0.025 | inactive: 0.048 | inactive: -0.006 | active: -0.3 | inactive: 0.022 | inactive: -0.09 | inactive: -0.124 | inactive: -0.018 | inactive: -0.02 | inactive: 0.007 | 
2 | TAGLN2 isoform 2 (UniProt P37802) | inactive: -0.008 | inactive: 0.019 | inactive: 0.078 | inactive: -0.019 | inactive: -0.043 | inactive: 0.001 | inactive: 0.023 | inactive: 0.038 | inactive: -0.028 | inactive: 0.01 | inactive: 0.047 | inactive: 0.009 | inactive: 0.001 | inactive: 0.014 | inactive: 0.015 | inactive: 0.004 | inactive: -0.018 | inactive: -0.058 | inactive: 0.008 | inactive: 0.004
3 | STT3A (UniProt P46977) | inactive: -0.024 | inactive: 0.008 | inactive: 0.007 | inactive: -0.033 | inactive: -0.015 | inactive: 0.039 | inactive: 0.031 | inactive: -0.01 | inactive: 0.019 | inactive: 0.003 | inactive: -0.014 | inactive: -0.047 | inactive: 0.02 | inactive: -0.007 | inactive: 0.011 | inactive: -0.09 | inactive: -0.027 | inactive: 0.028 | inactive: -0.018 | inactive: 0.021
4 | STX4 (UniProt Q12846) | inactive: -0.031 | inactive: -0.017 | inactive: 0.066 | inactive: 0.005 | inactive: -0.066 | inactive: 0 | inactive: 0.051 | inactive: -0.064 | inactive: -0.049 | inactive: 0.076 | inactive: -0.051 | inactive: 0.048 | inactive: 0.012 | inactive: 0.058 | inactive: 0.025 | inactive: 0.108 | inactive: -0.063 | inactive: -0.051 | inactive: 0.013 | inactive: -0.005
5 | TALDO1 (UniProt P37837) | inactive: -0.009 | inactive: 0.021 | inactive: 0.063 | inactive: 0.026 | inactive: -0.024 | inactive: -0.018 | inactive: -0.004 | inactive: 0.074 | inactive: 0.01 | inactive: 0.017 | inactive: 0.041 | inactive: -0.013 | inactive: -0.022 | inactive: -0.046 | inactive: 0.026 | inactive: -0.034 | inactive: -0.007 | inactive: -0.02 | inactive: 0.01 | inactive: 0.003
6 | STOM (UniProt P27105) | inactive: -0.027 | inactive: -0.087 | inactive: -0.011 | inactive: 0.1 | inactive: 0.054 | inactive: 0.04 | inactive: -0.188 | inactive: -0.038 | inactive: 0.004 | inactive: -0.079 | inactive: -0.039 | inactive: 0.019 | inactive: -0.018 | inactive: -0.054 | inactive: 0.004 | inactive: -0.064 | inactive: 0.14 | inactive: 0.028 | inactive: 0.039 | 
7 | TAL1 (UniProt P17542) | inactive: -0.004 | inactive: 0.047 | inactive: -0.024 | inactive: -0.014 | inactive: -0.053 | inactive: 0.058 | inactive: -0.089 | inactive: 0.009 | inactive: -0.006 | inactive: -0.007 | inactive: 0.043 | inactive: 0.023 | inactive: -0.029 | inactive: -0.059 | inactive: -0.013 | inactive: -0.002 | inactive: 0.029 | inactive: -0.032 | inactive: 0.058 | inactive: 0.004
8 | STX12 (UniProt Q86Y82) | inactive: 0.059 | inactive: 0.009 | inactive: 0.005 | inactive: -0.033 | inactive: -0.005 | inactive: 0.033 | inactive: -0.018 | inactive: -0.042 | inactive: 0.024 | inactive: 0.075 | inactive: 0.03 | inactive: 0.006 | inactive: 0.014 | inactive: -0.018 | inactive: 0.003 | inactive: 0.01 | inactive: 0.008 | inactive: -0.073 | inactive: 0.105 | inactive: 0.002
9 | SULT1A3 isoform 3 (UniProt P0DMM9) | inactive: 0.045 | inactive: 0.039 | inactive: -0.086 | inactive: 0.282 | inactive: 0.198 | inactive: 0.115 | inactive: 0.008 | inactive: 0.296 | inactive: -0.024 | inactive: 0.03 | inactive: -0.028 | inactive: -0.006 | inactive: -0.087 | inactive: -0.09 | inactive: -0.094 | inactive: -0.1 | inactive: 0.02 | inactive: 0.03 | inactive: -0.125 | inactive: 0.074
10 | SUCLG2 (UniProt Q96I99) | inactive: 0.032 | inactive: 0.048 | inactive: 0.087 | inactive: 0.011 | inactive: 0.045 | inactive: -0.025 | inactive: 0.052 | inactive: 0.014 | inactive: -0.003 | inactive: 0.026 | inactive: 0.067 | inactive: 0.012 | inactive: -0.026 | inactive: -0.045 | inactive: -0.062 | inactive: -0.006 | inactive: 0.027 | inactive: -0.041 | inactive: 0.059 | inactive: -0.02
11 | SUCLA2 (UniProt Q9P2R7) | inactive: 0.024 | inactive: 0.016 | inactive: 0.072 | inactive: -0.031 | inactive: 0.049 | inactive: -0.018 | inactive: 0.037 | inactive: -0.019 | inactive: 0.004 | inactive: -0.01 | inactive: 0.02 | inactive: -0.045 | inactive: 0.014 | inactive: -0.021 | inactive: -0.151 | inactive: -0.107 | inactive: -0.033 | inactive: -0.034 | inactive: 0.022 | 
12 | TANGO6 (UniProt Q9C0B7) | inactive: 0.208 | inactive: 0.032 | inactive: -0.003 | inactive: -0.026 | inactive: -0.001 | inactive: 0.057 | inactive: 0.025 | inactive: -0.056 | inactive: -0.026 | inactive: 0 | inactive: -0.117 | inactive: -0.077 | inactive: 0.052 | inactive: 0.197 | inactive: -0.153 | inactive: -0.098 | inactive: -0.068 | inactive: 0 | inactive: 0.006 | 
13 | SURF6 (UniProt O75683) | inactive: 0.09 | inactive: -0.309 | inactive: -0.561 | inactive: -0.153 | inactive: -0.017 | inactive: 0.003 | inactive: -0.138 | inactive: -0.118 | inactive: -0.044 | inactive: -0.169 | inactive: -0.059 | inactive: 0.033 | inactive: 0.137 | inactive: 0.236 | inactive: 0.176 | inactive: 0.27 | inactive: 0 | inactive: 0.15 | inactive: -0.562 | inactive: -0.079
14 | TARSL2 (UniProt A2RTX5) | inactive: 0.038 | inactive: 0.009 | inactive: -0.051 | inactive: 0.019 | inactive: 0.037 | inactive: 0.027 | inactive: 0.046 | inactive: 0.017 | inactive: 0.045 | inactive: -0.065 | inactive: 0.051 | inactive: -0.009 | inactive: -0.011 | inactive: -0.021 | inactive: -0.083 | inactive: -0.15 | inactive: -0.032 | inactive: 0.069 | inactive: 0.046 | inactive: 0.025
15 | TAF15 (UniProt Q92804) | inactive: -0.088 | inactive: -0.058 | inactive: -0.197 | inactive: 0.011 | inactive: -0.016 | inactive: 0.001 | inactive: -0.068 | inactive: -0.037 | inactive: 0.029 | inactive: -0.077 | inactive: -0.029 | inactive: 0.094 | inactive: 0.029 | inactive: 0.012 | inactive: 0.152 | inactive: 0.104 | inactive: 0.083 | inactive: 0.042 | inactive: 0.099 | inactive: -0.038
16 | SUPT4H1 (UniProt P63272) | inactive: -0.01 | inactive: 0.008 | inactive: 0.093 | inactive: 0.031 | inactive: -0.085 | inactive: -0.02 | inactive: 0.018 | inactive: 0.007 | inactive: -0.025 | inactive: 0.006 | inactive: 0.004 | inactive: 0.093 | inactive: 0.016 | inactive: 0.128 | inactive: -0.049 | inactive: -0.107 | inactive: 0.011 | inactive: -0.1 | inactive: -0.124 | inactive: -0.012

Single records, from the list above. Order of values: log2 fold change [1] | log2 fold change [2] | log2 fold change [3] | log2 fold change [4] | log2 fold change [5] | log2 fold change [6] | log2 fold change [7] | log2 fold change [8] | log2 fold change [9] | log2 fold change [10] | log2 fold change [11] | log2 fold change [12] | log2 fold change [13] | log2 fold change [14] | log2 fold change [15] | log2 fold change [16] | log2 fold change [17] | log2 fold change [18] | log2 fold change [19] | log2 fold change [20]
SURF6 (UniProt O75683) reads inactive: 0.09 | inactive: -0.309 | inactive: -0.561 | inactive: -0.153 | inactive: -0.017 | inactive: 0.003 | inactive: -0.138 | inactive: -0.118 | inactive: -0.044 | inactive: -0.169 | inactive: -0.059 | inactive: 0.033 | inactive: 0.137 | inactive: 0.236 | inactive: 0.176 | inactive: 0.27 | inactive: 0 | inactive: 0.15 | inactive: -0.562 | inactive: -0.079
TAF15 (UniProt Q92804) reads inactive: -0.088 | inactive: -0.058 | inactive: -0.197 | inactive: 0.011 | inactive: -0.016 | inactive: 0.001 | inactive: -0.068 | inactive: -0.037 | inactive: 0.029 | inactive: -0.077 | inactive: -0.029 | inactive: 0.094 | inactive: 0.029 | inactive: 0.012 | inactive: 0.152 | inactive: 0.104 | inactive: 0.083 | inactive: 0.042 | inactive: 0.099 | inactive: -0.038

Source: the supplement of paper PMC10849652
